From PMC11343034, “CDCA7 is an evolutionarily conserved hemimethylated DNA sensor in eukaryotes”
The comparison behind a weaker result is the experiment's own reference, which may not be listed here. For some of these results: Tags and fusion partners may be left off the protein sequences shown. For some of these results: For at least one entry, the source does not settle the construct or the ends of the probe. For some of these results: At least one verdict rests on a figure or table, not on a statement of the authors. For some of these results: Results from cells or extracts need not show a direct contact.

Experiments:
[1] = system: CDCA7e G252V, 35S-labeled (Xenopus laevis); assay: pull-down; conditions: no selective association; 5mC at CpG cytosines of strand 1; protein translated in vitro; protein details: 35S-Met; label: 5' biotin on strand 1
[2] = system: CDCA7e R262H, 35S-labeled (Xenopus laevis); assay: pull-down; conditions: no selective association; 5mC at CpG cytosines of strand 1; protein translated in vitro; protein details: 35S-Met; label: 5' biotin on strand 1
[3] = system: CDCA7e WT, 35S-labeled (Xenopus laevis); assay: pull-down; conditions: protein translated in vitro, protein details: 35S-Met, label: 5' biotin on strand 1
[4] = system: CDCA7e R232H, 35S-labeled (Xenopus laevis); assay: pull-down; conditions: no selective association; 5mC at CpG cytosines of strand 1; protein translated in vitro; protein details: 35S-Met; label: 5' biotin on strand 1
[5] = system: CDCA7e (endogenous, egg extract) (Xenopus laevis); assay: pull-down; conditions: protein in an extract, label: 5' biotin on strand 2
[6] = biological target: T1, HELLS (endogenous, egg extract) (Xenopus laevis) (UniProt Q4V835); assay: pull-down; conditions: protein in an extract, label: 5' biotin on strand 2
T1 sequence (looked up, limits assumed): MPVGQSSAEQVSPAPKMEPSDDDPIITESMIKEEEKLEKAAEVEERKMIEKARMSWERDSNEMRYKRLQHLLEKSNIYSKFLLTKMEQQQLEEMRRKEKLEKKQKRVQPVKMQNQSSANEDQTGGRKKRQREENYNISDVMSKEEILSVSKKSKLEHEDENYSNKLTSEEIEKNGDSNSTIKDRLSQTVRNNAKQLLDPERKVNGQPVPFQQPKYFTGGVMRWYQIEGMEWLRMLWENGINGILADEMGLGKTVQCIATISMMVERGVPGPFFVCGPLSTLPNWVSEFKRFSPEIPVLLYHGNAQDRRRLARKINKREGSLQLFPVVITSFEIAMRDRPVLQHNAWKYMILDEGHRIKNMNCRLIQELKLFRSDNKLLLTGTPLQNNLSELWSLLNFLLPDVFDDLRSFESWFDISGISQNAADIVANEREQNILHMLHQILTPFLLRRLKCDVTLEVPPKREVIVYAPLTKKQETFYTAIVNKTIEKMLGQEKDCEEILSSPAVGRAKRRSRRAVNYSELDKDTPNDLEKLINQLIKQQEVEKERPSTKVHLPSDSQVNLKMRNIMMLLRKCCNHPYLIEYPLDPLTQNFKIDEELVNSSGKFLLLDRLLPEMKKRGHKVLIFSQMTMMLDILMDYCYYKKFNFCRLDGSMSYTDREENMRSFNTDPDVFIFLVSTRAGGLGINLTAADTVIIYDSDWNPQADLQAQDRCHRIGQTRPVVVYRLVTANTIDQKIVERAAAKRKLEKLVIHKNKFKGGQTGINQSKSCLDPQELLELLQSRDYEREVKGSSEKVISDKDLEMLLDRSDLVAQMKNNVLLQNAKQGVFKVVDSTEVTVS

[7] = biological target: T2, hCDCA7 264-371 C339S (Homo sapiens) (UniProt Q9BWT1); assay: EMSA; conditions: with nucleosome present, which is preferred; 5mC at 15 of strand 2; Oligo EMSA: 20 mM Tris-HCl pH 7.5, 150 mM NaCl, 1 mM DTT, 0.05% NP-40, 10% glycerol, 4 C, 0.5 uM DNA; recombinant protein; residues 264-371; protein details: GST-SUMO removed
T2 sequence (looked up): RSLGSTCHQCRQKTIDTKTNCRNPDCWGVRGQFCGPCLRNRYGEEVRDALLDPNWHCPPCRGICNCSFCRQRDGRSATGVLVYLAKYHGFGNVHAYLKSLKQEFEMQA

[8] = biological target: T3, C. gigas CDCA7 homolog (Crassostrea gigas) (UniProt A0A8W8IWK5); assay: pull-down; conditions: boiled extract, protein translated in vitro, protein details: 35S-Met, label: 5' biotin on strand 2
T3 sequence (looked up, limits assumed): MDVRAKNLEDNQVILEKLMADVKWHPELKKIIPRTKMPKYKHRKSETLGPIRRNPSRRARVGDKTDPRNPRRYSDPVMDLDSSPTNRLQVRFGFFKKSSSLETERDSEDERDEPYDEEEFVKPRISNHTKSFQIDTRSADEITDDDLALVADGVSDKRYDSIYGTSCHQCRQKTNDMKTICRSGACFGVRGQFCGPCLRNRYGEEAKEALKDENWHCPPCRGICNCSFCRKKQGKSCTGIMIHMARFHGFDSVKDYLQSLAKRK

[9] = biological target: T4, CDCA7L 322-454 (Homo sapiens) (UniProt Q96GN5); assay: pull-down; conditions: egg extract, protein translated in vitro, residues 322-454, protein details: 35S-Met, label: 5' biotin on strand 2
T4 sequence (looked up): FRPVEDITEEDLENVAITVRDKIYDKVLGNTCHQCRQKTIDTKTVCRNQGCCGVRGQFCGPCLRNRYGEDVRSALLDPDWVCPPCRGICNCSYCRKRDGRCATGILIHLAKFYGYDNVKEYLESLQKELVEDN

[10] = biological target: T5, N. vectensis CDCA7 homolog (Nematostella vectensis) (UniProt A7SQU1); assay: pull-down; conditions: boiled extract, protein translated in vitro, protein details: 35S-Met, label: 5' biotin on strand 2
T5 sequence (looked up, limits assumed): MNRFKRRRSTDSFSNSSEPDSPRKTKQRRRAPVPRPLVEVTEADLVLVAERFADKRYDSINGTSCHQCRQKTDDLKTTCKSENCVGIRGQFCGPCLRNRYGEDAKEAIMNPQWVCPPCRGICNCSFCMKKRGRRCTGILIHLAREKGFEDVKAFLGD

[11] = biological target: T6, A. thaliana CDCA7 homolog (Arabidopsis thaliana) (UniProt Q0WPT6); assay: pull-down; conditions: boiled extract, protein translated in vitro, protein details: 35S-Met, label: 5' biotin on strand 2
T6 sequence (looked up, limits assumed): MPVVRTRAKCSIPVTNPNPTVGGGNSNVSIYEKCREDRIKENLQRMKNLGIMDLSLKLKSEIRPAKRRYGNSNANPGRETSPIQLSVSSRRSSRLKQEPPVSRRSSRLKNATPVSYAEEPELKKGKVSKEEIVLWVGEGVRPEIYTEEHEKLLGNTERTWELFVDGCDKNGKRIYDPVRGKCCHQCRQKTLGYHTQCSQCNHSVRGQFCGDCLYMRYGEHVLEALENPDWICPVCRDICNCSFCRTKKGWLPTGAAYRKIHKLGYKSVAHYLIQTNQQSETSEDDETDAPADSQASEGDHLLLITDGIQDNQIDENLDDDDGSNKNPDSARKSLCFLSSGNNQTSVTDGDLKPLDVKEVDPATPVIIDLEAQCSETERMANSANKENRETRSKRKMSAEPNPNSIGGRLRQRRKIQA

[12] = 5mC at 41,47,49,53 of strand 1 and 1,5,7,13 of strand 2

Sequence: TCGGGTTATGTGATGGACCCTATACGCGGGCGCCCTGGAGAATCCTGCAGCCGAGGCCGCTCAATTGGTCGTAGCAAGCTCTAGCACCGCTTAAACGCACGTACGCGCTGTCCCCCGCGTTTTAACCGCCAAGGGGATTACTCCCTAGTCTCCAGGCACGTGTCAGATATATACATCCTGTGCATGTATTGAACAGCGAC (double strand) [200-bp Widom 601 hemimethylated]
- binding result [1]: binds more weakly
- binding result [2]: binds more weakly
- binding result ([3]; 5mC at CpG cytosines of strand 1): binds
- binding result [4]: binds more weakly

Sequence: GCGGGTGATGGACCCTATACGCGGCCGCCCTGGAGAATCCCGGTGCCGCGGCCG (double strand) [54-bp hemi-Me (F)]
- binding result ([5]; 5mC at 41,47,49,53 of strand 1): binds
- binding result ([6]; 5mC at 41,47,49,53 of strand 1): binds

Sequence: ATCAGAATCCCGGTGCCGAGGCCGCTCAATTGGTCGTAGACAGCTCTAGCACCGCTTAAACGCACGTACGCGCTGTCCCCCGCGTTTTAACCGCCAAGGGGATTACTCCCTAGTCTCCAGGCACGTGTCCGATATATACATCGAT (double strand) [-58C free DNA]
- binding result [7]: binds more weakly

Sequence: GCGGGTGATGGACCCTATACGCGGCCGCCCTGGAGAATCCCGGTGCCGCGGCCG (double strand) [54-bp un-Me]
- binding result [5]: binds more weakly
- binding result [8]: binds more weakly
- binding result [9]: binds more weakly
- binding result [10]: binds more weakly
- binding result [11]: binds more weakly
- binding result [6]: binds more weakly

Sequence: TCGGGTTATGTGATGGACCCTATACGCGGGCGCCCTGGAGAATCCTGCAGCCGAGGCCGCTCAATTGGTCGTAGCAAGCTCTAGCACCGCTTAAACGCACGTACGCGCTGTCCCCCGCGTTTTAACCGCCAAGGGGATTACTCCCTAGTCTCCAGGCACGTGTCAGATATATACATCCTGTGCATGTATTGAACAGCGAC (double strand) [200-bp Widom 601 unmethylated]
- binding result [3]: binds more weakly

Sequence: GCGGGTGATGGACCCTATACGCGGCCGCCCTGGAGAATCCCGGTGCCGCGGCCG (double strand) [54-bp hemi-Me (R)]
- binding result ([5]; 5mC at 1,5,7,13 of strand 2): binds
- binding result ([6]; 5mC at 1,5,7,13 of strand 2): binds

Sequence: GCGGGTGATGGACCCTATACGCGGCCGCCCTGGAGAATCCCGGTGCCGCGGCCG (double strand) [54-bp full-Me]
- binding result [5, 12]: binds more weakly
- binding result [8, 12]: binds more weakly
- binding result [9, 12]: binds more weakly
- binding result [10, 12]: binds more weakly
- binding result ([11]; above un-Me, 5mC at 41,47,49,53 of strand 1 and 1,5,7,13 of strand 2): binds more weakly
- binding result [6, 12]: binds more weakly
